At least one peptide structure holds a part that was inferred or is arguable (an end, a ring closure or a residue). Peptide text beside a SMILES is read from it.
How the values were obtained:
Type in all cases: in vivo, mouse
[1] = tested on: C57BL/6 mice; assay: Mobilization assay: hematopoietic progenitor cells (CFU from PB MNC)
Experimental: FIG. 3. Dose-response effect of TL-1 and AK-1 on mobilization of hematopoietic progenitor cells to peripheral blood. C57BL/6 mice were s.c. injected with 1, 5 or 10 mg/kg of TL-1 or AK-1. Control mice were injected with PBS. After 1-1.5 h, mice were sacrificed, peripheral blood mononuclear cells (PB MNC) were separated by Ficoll, seeded into the methylcellulose, and the number of colony-forming units (CFU) was estimated. Data shown are the number of CFU per 2×10^5 seeded PB MNC cells. Vertical bars represent standard deviation of duplicate experiments. *P<0.05 compared to control.
FIG. 5. TL-1 synergizes with G-CSF to mobilize hematopoietic progenitor cells to peripheral blood. C57BL/6 mice were s.c. injected with 5 mg/kg of AMD3100 (AMD), TL-1, AK-1, TL-1+AMD3100, or AK-1+AMD3100. Other mice were injected with G-CSF, alone or with TL-1 or AMD3100. Control mice were injected with PBS. After 1-1.5 h, mice were sacrificed, peripheral blood mononuclear cells (PB MNC) were separated by Ficoll, seeded into the methylcellulose, and the number of colony-forming units (CFU) was estimated. Data shown are the number of CFU per 2×10^5 seeded PB MNC cells. Vertical bars represent standard deviation of duplicate experiments. *P<0.05 compared to control.
(§1) C57BL/6 mice were injected s.c. with PBS (control), 5 mg/kg AMD3100, or one of the peptides TL-1, cyclic TL-1 and AK-1, at various doses. Another group of mice was s.c. injected with 5 mg/kg AMD3100 together with TL-1, or cyclic TL-1, or AK-1 (all peptides at 5 mg/kg), 1-1.5 hr before sacrifice. An additional group of mice was s.c. injected with-G-CSF at a dose of 5 μg/mouse once a day for 5 days. Mice were sacrificed 4 hrs post last G-CSF injection; 1-1.5 before sacrifice, mice were injected with TL-1, cyclic TL-1 or AK-1, all at 5 mg/kg. Peripheral blood (PB) was collected from mice by cardiac puncture into heparin containing tubes and the number of white blood cells (WBC) per 1 mL of blood was calculated. The tubes were centrifuged, plasma was collected and kept at −20° C. until tested. In order to evaluate the number of progenitor cells, PB mononuclear cells were isolated using Ficoll gradient centrifugation, and seeded (2×10^5 cells/plate) in methylcellulose with cytokines as described (Spiegel, A., et al., 2004, Goichberg, P., et al., 2006). Colonies, reflecting colony-forming units (CFU), were scored after 7 days.
In the same experiments, blood mononuclear cells were collected and tested for the presence of colony-forming cells reflecting the number of HPC.

[2] = tested on: C57BL/6 mice; assay: Mobilization assay: WBC number in peripheral blood; conditions: for WBC mobilization upon simultaneous injection with AMD3100 / WBC mobilizing activity in comparison with AMD3100: 5 mg/kg s.c. each; for WBC mobilization: sacrificed 1-2 hr later
Experimental: FIG. 2. Dose-response effect of TL-1 and AK-1 on mobilization of WBC. C57BL/6 mice were s.c. injected with 1, 5 or 10 mg/kg of TL-1 or AK-1. Control mice were injected with phosphate buffered saline (PBS). After 1-1.5 h, mice were sacrificed and WBC number in the PB was calculated. Data shown are the mean±SD of 3 separate experiments. *P<0.05 compared to control.
FIG. 4. TL-1 synergizes with G-CSF to mobilize WBC. C57BL/6 mice were s.c. injected with G-CSF 2.5 μg/twice a day for four days. Eighteen hrs after the last injection mice were s.c. injected with 5 mg/kg of either TL-1, AK-1 or AMD3100 (AMD), sacrificed 1.5 h later, and the number of WBC was calculated. Control mice were injected with PBS or with TL-1, AK-1 or AMD3100 without pre-treatment with G-CSF. Data shown are the mean±SD of 3 separate experiments. *P<0.05 compared to control. **Significant difference between two compared groups of mice.
as §1
The cell mobilizing potential of the peptides was examined in intact C57BL/6 mice, using the protocol applied for AMD3100 (Broxmeyer, H. E., et al., 2005). First, the effect of different doses of the peptides was evaluated. Mice were s.c. injected with 1, 5 and 10 mg/kg of TL-1 (linear and cyclic) or AK-1, sacrificed 1-2 hr later and the total number of WBC in 1 ml of blood was determined (see Materials and Methods).
Next, the mobilizing activity of the peptides in comparison with AMD3100 was examined, as well as their mobilizing activity in combination with AMD3100 or G-SCF. In these experiments, the peptides and AMD3100 were s.c. injected at a dose of 5 mg/kg and mice were sacrificed 1-2 hr later. G-SCF was injected s.c. at a concentration of 2.5 μg per mouse twice a day for 4 days; the peptides or AMD3100 were injected 18 hr after the last G-SCF injection and mice were sacrificed 1-2 hr later.

[3] = tested on: SDF-1; assay: SDF-1 plasma levels in injected mice (ELISA); conditions: 5 mg/kg s.c., compared with mice injected with PBS
Experimental: SDF-1 levels in tested samples were determined by ELISA as described (Kalinkovich, A., et al., 2006) where the K15C monoclonal antibodies (mAb, INRA, Paris, France) recognizing the first three amino acids of SDF-1 were utilized as a capture Ab (10 μg/mL) in order to measure levels of intact, non-cleaved SDF-1. Levels of basic FGF (bFGF) and HGF in tested samples were determined by using corresponding capture mAbs and polyclonal biotynilated Abs (R&D Systems) as recommended by the manufacturer. In order to examine SDF-1, bFGF and HGF levels in cell supernatants, MS-5, MBA-15 and MG-63 cells were seeded in 24-well Costar wells and cultivated in RPMI 1640 or αMEM Eagle medium, respectively, with 10% FCS. When the cells reached confluence, the medium was changed to serum free medium and cells were cultivated for additional 6 hrs in the presence of various concentrations of the peptides. Medium samples were collected and centrifuged 10 min at 6000×g at 4° C. to remove cell debris. Supernatants were collected and kept at −70° C. until tested.

| SMILES | HPC mobilization (colony-forming cells) ([1]; 1 mg/kg s.c.) | HPC mobilization capability compared with AMD3100 ([1]; equal dose 5 mg/kg) | capability to induce HPC mobilization compared with TL-1 ([1]; mouse model) | WBC mobilization upon simultaneous injection with AMD3100 [2] | WBC mobilizing activity in comparison with AMD3100 [2] | WBC mobilization, dose response ([2]; all tested doses: 1, 5 and 10 mg/kg s.c.) | SDF-1 plasma levels [3] | HPC mobilization in combination with AMD3100 ([1]; 5 mg/kg each) | HPC mobilization, dose response ([1]; all doses used: 1, 5 and 10 mg/kg s.c.) | HPC mobilization in combination with G-CSF ([1]; peptide 5 mg/kg after G-CSF) | WBC mobilization ([2]; 1 mg/kg s.c.) | additive WBC effect with G-CSF compared with AMD3100 and G-CSF ([2]; 5 mg/kg after G-CSF pre-treatment) | WBC mobilization ([2]; 5 mg/kg s.c.) | WBC mobilization ([2]; 10 mg/kg s.c.) | WBC mobilization in combination with G-CSF ([2]; G-CSF 2.5 μg per mouse twice a day for 4 days, peptide 5 mg/kg 18 hr after last injection) |
| --- | --- | --- | --- | --- | --- | --- | --- | --- | --- | --- | --- | --- | --- | --- | --- |
| N=C(N)NCCC[C@H](NC(=O)CNC(=O)[C@@H](N)CO)C(=O)N[C@@H](CCCCN)C(=O)N[C@@H](CS)C(=O)N[C@@H](CS)C(=O)N[C@@H](CCCNC(=N)N)C(=O)N[C@@H](CCCCN)C(=O)N[C@@H](CCCCN)C(=O)N[C@@H](CCCCN)C(=O)O [AK-1, SGRKCCRKKK] (H-SGRKCCRKKK-OH) | induced HPC mobilization | even stronger than that of AMD3100 | higher than that of TL-1 | did not reveal an additive effect | equal to that provided by AMD3100 | induced WBC mobilization in a clear dose-dependent manner | significant elevation |  |  |  |  |  |  |  |  |
| N=C(N)NCCC[C@H](NC(=O)CNC(=O)[C@@H](N)CCCNC(=N)N)C(=O)N[C@@H](CCCCN)C(=O)N[C@@H](CS)C(=O)N[C@@H](CS)C(=O)N[C@@H](CCCNC(=N)N)C(=O)N[C@@H](CCCNC(=N)N)C(=O)N[C@@H](CCCCN)C(=O)N[C@@H](CCCCN)C(=O)O [TL-1, RGRKCCRRKK] (H-RGRKCCRRKK-OH) |  |  |  | no additive effect | weaker as compared to AMD3100 |  | did not induce increase | additive effect | significantly induced mobilization of HPC, equally at all doses used | additive effect | ineffective | weaker than those obtained by combination of AMD3100 and G-CSF | induced WBC mobilization | induced WBC mobilization | significant additive effect |

— patent US9567371B2, “Short beta-defensin-derived peptides” (Yeda Research and Development Co. Ltd., priority 2009, dated 2017)
